Binding data for two molecules are collected here from article PMC9203013.

By UniProt entry, the sequences of proteins in these tests, tags left out.
UniProt P92177: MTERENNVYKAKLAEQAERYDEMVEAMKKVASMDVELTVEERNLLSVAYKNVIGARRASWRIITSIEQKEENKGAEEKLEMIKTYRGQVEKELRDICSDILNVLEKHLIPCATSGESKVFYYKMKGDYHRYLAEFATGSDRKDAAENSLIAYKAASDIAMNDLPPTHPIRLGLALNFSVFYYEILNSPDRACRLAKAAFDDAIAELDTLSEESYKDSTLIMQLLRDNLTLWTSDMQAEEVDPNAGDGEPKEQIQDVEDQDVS

The assay deals with GST-14-3-3ε (Drosophila melanogaster) (UniProt P92177). Briefly: pull-down; MBP-Borr(113–221) fragments after kinase incubation (30°C, phosphorylation buffer with BSA) mixed with 20 μg GST-14-3-3ε in Pulldown buffer (25 mM Tris-Cl pH 7.6, 150 mM NaCl, 0.5% Triton X-100, 0.3 mM Na3VO4), 30 min on ice, then glutathione beads 1 h at 4°C; western blot with an MBP antibody; both purified. Background: A western blot detects proteins with antibodies after separation by electrophoresis.

No constants are given. Whether binding was seen depends on the method and setting. Some results given as binding are weak or reduced against the parent protein; the word gives no strength. Tags and fused reporters may be left off the sequences shown.

B1: MBP-Borealin(113–221) with S161A mutation, phosphorylated by PKD2 (domain or fragment, UniProt Q9VLD6 113-221)
chain: SRNDEEDSSIGASGGSILAAHTGSLLRSTKAMRTPGPLHSARARRARRARSACGDLNILHSAKPPSISSSSSSSRNSRSKLRTPMASRAKAFSADRTPLKQKQMRSGSP
modifications: phosphorylated in vitro by human PKD2; phosphoserine at S163
Turning to B1, the binding entry is given as “binds”.

B2: MBP-Borealin(113–221) with S161A mutation, treated with Aurora B and PKD2 (domain or fragment, UniProt Q9VLD6 113-221)
chain: SRNDEEDSSIGASGGSILAAHTGSLLRSTKAMRTPGPLHSARARRARRARSACGDLNILHSAKPPSISSSSSSSRNSRSKLRTPMASRAKAFSADRTPLKQKQMRSGSP
modifications: incubated in vitro with human Aurora B and human PKD2; phosphoserine at S163
Regarding B2, the binding result is recorded as “binds”.
